This is an account of results in publication PMC11014917.

By UniProt entry, the sequences of proteins in these tests, tags left out.
UniProt Q02224: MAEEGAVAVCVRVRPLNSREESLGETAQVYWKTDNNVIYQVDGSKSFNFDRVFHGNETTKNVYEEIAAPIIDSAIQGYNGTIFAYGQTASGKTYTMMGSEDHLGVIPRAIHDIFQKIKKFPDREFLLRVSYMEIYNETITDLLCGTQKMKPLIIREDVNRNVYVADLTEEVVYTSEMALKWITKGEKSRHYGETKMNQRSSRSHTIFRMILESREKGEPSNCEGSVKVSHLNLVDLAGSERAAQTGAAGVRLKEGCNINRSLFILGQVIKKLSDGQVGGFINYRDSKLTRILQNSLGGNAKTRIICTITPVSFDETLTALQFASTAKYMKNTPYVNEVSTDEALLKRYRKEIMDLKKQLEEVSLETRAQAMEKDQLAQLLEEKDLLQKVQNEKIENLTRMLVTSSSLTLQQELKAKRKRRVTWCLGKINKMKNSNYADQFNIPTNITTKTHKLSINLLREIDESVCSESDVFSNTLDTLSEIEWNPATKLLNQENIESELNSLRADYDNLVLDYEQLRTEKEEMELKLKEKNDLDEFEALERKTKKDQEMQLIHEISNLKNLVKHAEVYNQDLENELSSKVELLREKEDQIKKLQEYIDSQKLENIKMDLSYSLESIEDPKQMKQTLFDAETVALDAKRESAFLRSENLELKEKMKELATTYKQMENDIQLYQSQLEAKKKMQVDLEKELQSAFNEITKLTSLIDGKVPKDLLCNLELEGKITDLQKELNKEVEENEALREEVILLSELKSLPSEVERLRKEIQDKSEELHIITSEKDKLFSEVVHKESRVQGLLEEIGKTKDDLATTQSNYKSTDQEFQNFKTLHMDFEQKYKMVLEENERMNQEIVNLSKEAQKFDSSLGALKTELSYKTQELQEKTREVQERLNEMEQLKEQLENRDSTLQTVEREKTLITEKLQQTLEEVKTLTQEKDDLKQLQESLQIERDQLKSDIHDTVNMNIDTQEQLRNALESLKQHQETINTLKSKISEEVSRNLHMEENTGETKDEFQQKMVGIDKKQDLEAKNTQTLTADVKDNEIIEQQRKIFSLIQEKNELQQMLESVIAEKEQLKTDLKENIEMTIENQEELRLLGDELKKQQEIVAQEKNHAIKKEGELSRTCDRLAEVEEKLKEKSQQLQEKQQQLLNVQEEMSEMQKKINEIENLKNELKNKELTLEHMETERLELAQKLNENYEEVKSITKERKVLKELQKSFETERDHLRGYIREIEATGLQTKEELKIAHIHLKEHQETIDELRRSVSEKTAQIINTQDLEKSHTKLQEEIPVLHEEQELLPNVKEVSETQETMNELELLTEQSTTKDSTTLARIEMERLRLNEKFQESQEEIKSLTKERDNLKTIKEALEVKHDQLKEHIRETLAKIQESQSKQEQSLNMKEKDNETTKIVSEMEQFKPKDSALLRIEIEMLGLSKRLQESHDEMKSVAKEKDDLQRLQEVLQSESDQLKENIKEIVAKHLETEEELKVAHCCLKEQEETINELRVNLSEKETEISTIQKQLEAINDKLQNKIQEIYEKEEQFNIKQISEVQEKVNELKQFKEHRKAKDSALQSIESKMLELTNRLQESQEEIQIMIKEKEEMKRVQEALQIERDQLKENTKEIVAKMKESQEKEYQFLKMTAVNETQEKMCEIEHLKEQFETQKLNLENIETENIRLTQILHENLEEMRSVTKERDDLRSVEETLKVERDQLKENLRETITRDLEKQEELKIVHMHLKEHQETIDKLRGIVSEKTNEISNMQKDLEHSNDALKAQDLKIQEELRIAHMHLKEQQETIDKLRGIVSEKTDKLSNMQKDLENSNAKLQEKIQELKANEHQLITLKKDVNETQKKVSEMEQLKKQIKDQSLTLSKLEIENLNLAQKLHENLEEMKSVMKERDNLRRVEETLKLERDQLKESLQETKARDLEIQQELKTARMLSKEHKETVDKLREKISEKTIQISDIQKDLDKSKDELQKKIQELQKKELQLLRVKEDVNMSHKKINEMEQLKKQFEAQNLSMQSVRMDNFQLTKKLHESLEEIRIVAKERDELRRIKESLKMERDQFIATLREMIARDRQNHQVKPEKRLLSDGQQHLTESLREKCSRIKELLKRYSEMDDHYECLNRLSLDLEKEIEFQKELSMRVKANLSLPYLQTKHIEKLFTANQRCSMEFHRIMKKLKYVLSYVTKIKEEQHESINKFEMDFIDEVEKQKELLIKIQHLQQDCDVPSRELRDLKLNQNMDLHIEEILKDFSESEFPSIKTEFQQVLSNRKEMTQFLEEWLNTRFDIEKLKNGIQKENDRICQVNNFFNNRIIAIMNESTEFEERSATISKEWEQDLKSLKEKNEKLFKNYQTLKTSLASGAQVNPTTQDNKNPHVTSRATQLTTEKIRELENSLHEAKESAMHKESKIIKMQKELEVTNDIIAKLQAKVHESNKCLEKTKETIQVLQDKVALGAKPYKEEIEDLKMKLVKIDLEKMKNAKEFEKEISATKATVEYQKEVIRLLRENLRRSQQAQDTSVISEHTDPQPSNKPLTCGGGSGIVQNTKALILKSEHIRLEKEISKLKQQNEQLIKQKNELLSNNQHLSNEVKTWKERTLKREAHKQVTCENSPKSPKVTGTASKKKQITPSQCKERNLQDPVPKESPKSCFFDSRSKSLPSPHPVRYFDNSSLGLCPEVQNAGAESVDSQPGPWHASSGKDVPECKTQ
UniProt O60566: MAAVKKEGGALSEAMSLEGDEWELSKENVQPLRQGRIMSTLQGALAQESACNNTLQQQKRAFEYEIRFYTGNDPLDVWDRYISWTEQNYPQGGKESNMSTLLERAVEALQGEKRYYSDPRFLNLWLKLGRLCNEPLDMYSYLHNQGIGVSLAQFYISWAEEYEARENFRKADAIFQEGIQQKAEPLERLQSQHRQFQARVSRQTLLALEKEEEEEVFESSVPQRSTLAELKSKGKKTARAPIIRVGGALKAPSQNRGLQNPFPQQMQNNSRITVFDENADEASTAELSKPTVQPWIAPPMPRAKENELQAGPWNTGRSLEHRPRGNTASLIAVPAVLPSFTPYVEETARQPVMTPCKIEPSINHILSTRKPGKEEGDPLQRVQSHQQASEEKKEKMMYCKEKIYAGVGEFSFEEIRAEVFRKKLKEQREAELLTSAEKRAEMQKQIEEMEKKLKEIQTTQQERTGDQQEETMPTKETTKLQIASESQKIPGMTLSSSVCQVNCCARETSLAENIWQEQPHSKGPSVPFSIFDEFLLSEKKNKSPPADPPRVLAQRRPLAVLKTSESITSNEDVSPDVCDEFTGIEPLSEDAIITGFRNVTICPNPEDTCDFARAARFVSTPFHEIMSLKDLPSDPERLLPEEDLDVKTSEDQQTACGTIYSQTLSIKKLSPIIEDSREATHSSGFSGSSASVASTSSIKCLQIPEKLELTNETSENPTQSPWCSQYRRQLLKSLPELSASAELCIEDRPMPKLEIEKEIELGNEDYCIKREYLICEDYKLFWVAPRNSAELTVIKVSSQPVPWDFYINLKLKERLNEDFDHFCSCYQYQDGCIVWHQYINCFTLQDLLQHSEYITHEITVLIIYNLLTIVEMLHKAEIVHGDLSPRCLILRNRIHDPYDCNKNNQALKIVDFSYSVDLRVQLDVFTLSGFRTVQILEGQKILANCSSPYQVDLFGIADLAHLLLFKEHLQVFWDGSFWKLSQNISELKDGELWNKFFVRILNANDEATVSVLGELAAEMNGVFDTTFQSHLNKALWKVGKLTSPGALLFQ

These are yes or no findings as the source states them, for the method shown. In cells and extracts the contact can be indirect. Some binding calls cover weakened binding; strength is not graded here.

Assay [1] deals with MycGFP-CENP-E (human) (UniProt Q02224). Put plainly: co-IP; C-Myc antibody 24 h at 4 °C, then Protein A/G agarose 2 h at 4 °C, with lysates of HEK 293T cells expressing MycGFP-CENP-E; blot for BubR1; control cells and CKAP5-depleted cells expressing CKAP5^853-2032-GFP.
Assay [2] shares this target. Put plainly: co-IP; GFP Trap agarose (GFP nanobody-coated beads), 4 h at 4 °C, with lysates of mitotic synchronized HEK 293T cells expressing MycGFP-CENP-E; lysis buffer 20 mM Tris, 50 mM NaCl, 1 mM EGTA, 1% Triton X 100; blot for BubR1; cells with control or CKAP5 depletion, with or without 0.25 µM okadaic ….

As for BubR1 (from UniProt O60566 1-1050), the binding result with MycGFP-CENP-E (human) [1] and in the assay with MycGFP-CENP-E (human) [2] was “binds” each time.
